This is one part of the list. Further columns of the screen follow, without active or inactive calls. Most of these compounds were active or inconclusive in the main read-out, so they are no random draw. Words in brackets tell the shape of the fitted curve; partial curves, single points and poor fits give uncertain potencies.
Test: qHTS Assay for Lipid Storage Modulators in Drosophila S3 Cells;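 for cell number change: cells counted by Cell Tracker Red CMTPX staining in the red channel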
Conditions: BODIPY lipid droplet fluorescence, 18-24 h; for cell number change: measured here: cell count max response, cells fed with added oleic acid
How it was run: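 Laser-scanning cytometry quantifies lipid droplet accumulation (500–530 nm total intensity; droplet/cell object ratio) in oleic acid-fed (400 uM added) Drosophila S3 cells treated with a concentration series. 20 uM Triacsin C defined 100% inhibition.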

[1] = measured here: lipid fluorescence (Fed channel) AC50, cells fed with added oleic acid
[2] = measured here: cell number channel AC50, cells fed with added oleic acid

| Compound | cell number change [%] | AC50 [1] | AC50 [2] |
| --- | --- | --- | --- |
| O=C(N/N=C\c1cc([N+](=O)[O-])ccc1N1CCCC1)c1ccccn1 | -0.639 | 6.51 µM [rising, single point] |  |
| CC(C)(C)c1ccc(S(=O)(=O)NCc2ccc(C(=O)N3CCCC3)cc2)cc1 | 84.6 | 29.1 µM [rising, single point] | 18.4 µM [rising, single point] |
| COc1ccc(CN(C)C(=O)c2[nH]c(C)c(C(C)=O)c2C)cc1F |  | 29.1 µM [falling, partial curve, poor fit] |  |
| O=C(O)CCNS(=O)(=O)c1ccc2ccccc2c1 | 10.7 | 6.51 µM [falling, single point] |  |
| COc1cccc(N2CCN(c3ccc4nnc(CCC(=O)Nc5ccc(C)cn5)n4n3)CC2)c1 | 5.19 | 23.1 µM [falling, partial curve] |  |
| O=C(N/N=C/c1ccc(N2CCOCC2)s1)c1ccc(NS(=O)(=O)c2cccs2)cc1 | 9.78 | 0.092 µM [falling, full curve, poor fit] | 6.51 µM [falling, single point] |
| O=C(Nc1ccc(S(=O)(=O)N2CCCC2)cc1)N1c2ccccc2Sc2ccccc21 | 135 | 0.326 µM [falling, full curve] |  |
| CCOC(=O)CNC(=O)CSc1nnc(COc2ccc(Cl)cc2)n1CC | 59.7 | 0.411 µM [rising, partial curve] | 0.206 µM [rising, full curve] |
| CCC(C(=O)OCC(=O)Nc1ccc2[nH]c(=O)[nH]c2c1)c1ccccc1 (stereo unspecified) | 17.2 | 29.1 µM [rising, single point] |  |
| CCCNC(=O)CN(c1cccc(F)c1)S(C)(=O)=O | -9.58 | 2.59 µM [rising, full curve, poor fit] |  |
| Cc1cc(C(=O)COC(=O)CNC(=O)c2ccccc2)c(C)n1CC1CCCO1 (stereo unspecified) | 4.93 | 1.16 µM [falling, full curve] |  |
| CCCn1c(SCC(=O)NC2CC2)nnc1-c1ccccn1 | 15.4 | 6.51 µM [rising, partial curve, poor fit] |  |
| O=C1NC(=O)C2(CCCCCCCCCCC2)N1 | 1.28 |  |  |
| O=C1c2ccccc2C(=O)N1CCc1c[nH]c2ccc(O)cc12 | 9.29 | 0.651 µM [rising, partial curve, poor fit] |  |
| CN(C)CCCN(C(=O)c1ccc(S(=O)(=O)N2CCc3ccccc32)cc1)c1nc2c(Cl)cccc2s1 | 35.1 | 29.1 µM [rising, partial curve] | 29.1 µM [rising, single point] |
| O=C(c1cccc(Cl)c1)C1CCCN(C(=O)c2ccc3c(c2)OCO3)C1 (stereo unspecified) | 0.885 | 4.61 µM [falling, single point] |  |
| CC(OC(=O)CCN=C1NS(=O)(=O)c2ccccc21)C(=O)Nc1ccccc1F (stereo unspecified) | 30.8 |  | 32.6 µM [rising, single point] |
| O=C(CCCCl)NC1=NN(c2ccccc2)C(=O)C1 | 13 | 0.651 µM [rising, partial curve] |  |
| CSc1ccccc1C(=O)NCCc1ccc(S(=O)(=O)N2CCCCC2)cc1 | 44.7 |  | 29.1 µM [rising, single point] |
| O=C(NCCN1CCOCC1)c1ccc(Cl)c(S(=O)(=O)N2CCOCC2)c1 | 23.7 | 1.46 µM [rising, full curve] | 0.326 µM [rising, full curve, poor fit] |
| O=C(Cc1ccccc1)NNC(=O)c1ccc(Br)o1 | -4.42 | 20.6 µM [rising, partial curve] |  |
| O=C(CSc1ccc2nnc(-c3ccncc3)n2n1)Nc1ccc2c(c1)OCO2 | -10.8 | 0.58 µM [falling, single point] | 4.11 µM [falling, single point] |
| COc1ccc(C(=O)N2CCCC(CCC(=O)NCc3ccccc3F)C2)c(OC)n1 (stereo unspecified) | -17 | 29.1 µM [falling, single point] |  |
| CNC(=S)N/N=C/c1cc(Br)c(OCc2ccncc2)c(OC)c1 | -9.97 | 18.4 µM [falling, single point] |  |
| Cc1cccnc1NC(=O)c1ccc(Br)o1 | 29.3 |  |  |
| COc1cc(NC(=O)c2cccc(C)c2)c(OC)cc1NC(=O)CN1CCOCC1 |  | 0.651 µM [rising, single point] | 6.51 µM [falling, single point] |
| CCCOc1ccc(NC(=O)C2CC(=O)N3CCCN=C3S2)cc1 (stereo unspecified) | 8.5 |  |  |

Reformatted field by field: two of the compounds above.
CCCn1c(SCC(=O)NC2CC2)nnc1-c1ccccn1
  cell number change [%]: 15.4
  AC50 [1]: 6.51 µM [rising, partial curve, poor fit]
O=C1NC(=O)C2(CCCCCCCCCCC2)N1
  cell number change [%]: 1.28

— PubChem BioAssay AID2685 (National Center for Advancing Translational Sciences (NCATS), 2010)
